The supplement of paper PMC12823440, “Inhibitors supercharge kinase turnover through native proteolytic circuits” (Nature, 2025)
Where a name gives a salt, the structure may show the parent alone. Some of the results follow. Hit calls seldom repeat between salt and free forms of one compound.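 Kinases were expressed as nanoluciferase fusions in K562 cells and luminescence was read every 4 h between 2 and 18 h as percent of control, DMSO set to 100% and a positive control to 0%. A time point counts as decreased when the signal drops significantly (2 sigma). The hit call is the authors' own, does not follow from the count of time points alone, and its rule is not shown.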

The chains behind the UniProt entries cited, without tags or fusion partners. Where a name states a change or a piece, a line headed by the entry shows the natural chain unless it says otherwise.
UniProt Q16288, whole entry, looked up: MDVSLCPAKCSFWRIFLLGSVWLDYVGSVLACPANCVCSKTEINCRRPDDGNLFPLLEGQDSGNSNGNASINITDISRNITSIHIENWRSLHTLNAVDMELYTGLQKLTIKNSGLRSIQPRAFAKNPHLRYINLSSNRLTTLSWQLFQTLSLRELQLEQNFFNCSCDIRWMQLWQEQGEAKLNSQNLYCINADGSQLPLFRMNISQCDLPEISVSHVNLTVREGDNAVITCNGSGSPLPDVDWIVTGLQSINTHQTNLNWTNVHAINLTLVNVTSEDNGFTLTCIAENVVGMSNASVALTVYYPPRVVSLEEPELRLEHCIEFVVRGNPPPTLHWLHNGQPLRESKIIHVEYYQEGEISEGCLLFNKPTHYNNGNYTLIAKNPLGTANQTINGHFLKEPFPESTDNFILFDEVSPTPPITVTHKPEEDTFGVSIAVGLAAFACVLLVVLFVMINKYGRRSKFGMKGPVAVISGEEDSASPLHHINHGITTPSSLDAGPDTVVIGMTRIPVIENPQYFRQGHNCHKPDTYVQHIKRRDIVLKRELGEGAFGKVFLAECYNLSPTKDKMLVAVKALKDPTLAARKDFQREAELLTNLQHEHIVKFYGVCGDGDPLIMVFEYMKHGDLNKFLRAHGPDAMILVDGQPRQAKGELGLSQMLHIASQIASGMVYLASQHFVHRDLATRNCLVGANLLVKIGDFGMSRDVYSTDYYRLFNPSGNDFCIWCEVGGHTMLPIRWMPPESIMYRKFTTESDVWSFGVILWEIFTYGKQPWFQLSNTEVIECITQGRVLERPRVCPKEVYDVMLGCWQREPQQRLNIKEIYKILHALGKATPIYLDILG
UniProt Q96KB5: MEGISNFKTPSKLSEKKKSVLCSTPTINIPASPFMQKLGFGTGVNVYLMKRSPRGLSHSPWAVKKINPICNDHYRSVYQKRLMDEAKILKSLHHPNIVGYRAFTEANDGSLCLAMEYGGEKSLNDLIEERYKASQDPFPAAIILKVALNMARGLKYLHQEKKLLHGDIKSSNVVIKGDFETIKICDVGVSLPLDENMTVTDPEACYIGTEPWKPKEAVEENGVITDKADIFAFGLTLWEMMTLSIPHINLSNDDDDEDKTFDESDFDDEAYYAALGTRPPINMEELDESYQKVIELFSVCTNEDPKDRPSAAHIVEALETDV
UniProt P09619, whole entry: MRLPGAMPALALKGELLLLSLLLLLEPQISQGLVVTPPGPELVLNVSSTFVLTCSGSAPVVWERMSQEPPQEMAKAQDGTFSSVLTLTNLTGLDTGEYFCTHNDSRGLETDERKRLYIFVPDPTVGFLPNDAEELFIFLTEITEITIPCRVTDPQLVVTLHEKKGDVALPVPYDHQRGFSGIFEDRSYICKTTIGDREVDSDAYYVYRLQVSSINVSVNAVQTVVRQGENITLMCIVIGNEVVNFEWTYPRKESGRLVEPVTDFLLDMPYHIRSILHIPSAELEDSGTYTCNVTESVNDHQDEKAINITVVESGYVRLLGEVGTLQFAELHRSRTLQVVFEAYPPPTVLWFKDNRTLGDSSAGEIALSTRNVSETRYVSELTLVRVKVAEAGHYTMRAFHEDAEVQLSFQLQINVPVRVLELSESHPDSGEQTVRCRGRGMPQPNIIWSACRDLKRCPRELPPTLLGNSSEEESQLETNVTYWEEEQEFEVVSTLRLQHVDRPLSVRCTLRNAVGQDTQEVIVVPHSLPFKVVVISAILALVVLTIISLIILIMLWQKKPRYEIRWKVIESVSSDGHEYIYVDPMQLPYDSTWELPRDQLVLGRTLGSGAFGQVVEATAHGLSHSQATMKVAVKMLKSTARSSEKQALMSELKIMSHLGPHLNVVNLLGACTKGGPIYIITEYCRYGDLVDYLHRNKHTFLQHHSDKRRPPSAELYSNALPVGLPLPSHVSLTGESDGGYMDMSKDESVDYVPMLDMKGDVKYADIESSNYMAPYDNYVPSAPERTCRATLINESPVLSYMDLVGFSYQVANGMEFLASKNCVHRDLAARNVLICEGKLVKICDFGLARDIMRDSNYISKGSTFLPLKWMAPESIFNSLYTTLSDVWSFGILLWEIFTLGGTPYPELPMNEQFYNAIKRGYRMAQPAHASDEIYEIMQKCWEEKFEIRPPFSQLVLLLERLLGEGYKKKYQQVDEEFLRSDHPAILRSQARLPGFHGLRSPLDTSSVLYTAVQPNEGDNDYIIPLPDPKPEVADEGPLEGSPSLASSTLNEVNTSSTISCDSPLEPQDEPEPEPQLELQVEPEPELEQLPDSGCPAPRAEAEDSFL
UniProt Q15118, whole entry, looked up: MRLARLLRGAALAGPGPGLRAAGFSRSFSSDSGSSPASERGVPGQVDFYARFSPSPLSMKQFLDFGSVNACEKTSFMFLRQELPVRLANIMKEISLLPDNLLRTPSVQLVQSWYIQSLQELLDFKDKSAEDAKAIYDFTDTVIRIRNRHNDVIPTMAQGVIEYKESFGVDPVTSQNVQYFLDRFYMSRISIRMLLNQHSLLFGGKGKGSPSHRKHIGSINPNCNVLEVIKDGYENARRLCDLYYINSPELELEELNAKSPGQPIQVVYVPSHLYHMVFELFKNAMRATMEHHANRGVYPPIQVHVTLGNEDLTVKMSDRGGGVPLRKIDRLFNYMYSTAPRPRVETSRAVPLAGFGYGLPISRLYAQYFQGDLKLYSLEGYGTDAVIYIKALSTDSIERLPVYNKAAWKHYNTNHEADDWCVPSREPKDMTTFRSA
UniProt O15530: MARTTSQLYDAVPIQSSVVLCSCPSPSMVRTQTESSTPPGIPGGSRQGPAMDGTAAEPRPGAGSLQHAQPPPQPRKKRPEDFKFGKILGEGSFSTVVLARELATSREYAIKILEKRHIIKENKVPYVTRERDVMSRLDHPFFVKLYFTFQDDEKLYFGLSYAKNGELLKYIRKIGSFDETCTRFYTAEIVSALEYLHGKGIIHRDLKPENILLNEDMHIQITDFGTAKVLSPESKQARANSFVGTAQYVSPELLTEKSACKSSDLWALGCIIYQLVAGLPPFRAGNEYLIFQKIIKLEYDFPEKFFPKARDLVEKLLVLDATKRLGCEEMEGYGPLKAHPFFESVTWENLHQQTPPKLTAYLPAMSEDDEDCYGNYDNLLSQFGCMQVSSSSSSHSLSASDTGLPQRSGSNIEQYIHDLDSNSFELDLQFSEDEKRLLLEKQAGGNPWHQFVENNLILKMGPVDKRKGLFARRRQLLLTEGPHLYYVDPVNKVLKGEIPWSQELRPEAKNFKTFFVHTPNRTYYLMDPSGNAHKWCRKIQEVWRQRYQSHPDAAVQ
UniProt P42356, whole entry, looked up: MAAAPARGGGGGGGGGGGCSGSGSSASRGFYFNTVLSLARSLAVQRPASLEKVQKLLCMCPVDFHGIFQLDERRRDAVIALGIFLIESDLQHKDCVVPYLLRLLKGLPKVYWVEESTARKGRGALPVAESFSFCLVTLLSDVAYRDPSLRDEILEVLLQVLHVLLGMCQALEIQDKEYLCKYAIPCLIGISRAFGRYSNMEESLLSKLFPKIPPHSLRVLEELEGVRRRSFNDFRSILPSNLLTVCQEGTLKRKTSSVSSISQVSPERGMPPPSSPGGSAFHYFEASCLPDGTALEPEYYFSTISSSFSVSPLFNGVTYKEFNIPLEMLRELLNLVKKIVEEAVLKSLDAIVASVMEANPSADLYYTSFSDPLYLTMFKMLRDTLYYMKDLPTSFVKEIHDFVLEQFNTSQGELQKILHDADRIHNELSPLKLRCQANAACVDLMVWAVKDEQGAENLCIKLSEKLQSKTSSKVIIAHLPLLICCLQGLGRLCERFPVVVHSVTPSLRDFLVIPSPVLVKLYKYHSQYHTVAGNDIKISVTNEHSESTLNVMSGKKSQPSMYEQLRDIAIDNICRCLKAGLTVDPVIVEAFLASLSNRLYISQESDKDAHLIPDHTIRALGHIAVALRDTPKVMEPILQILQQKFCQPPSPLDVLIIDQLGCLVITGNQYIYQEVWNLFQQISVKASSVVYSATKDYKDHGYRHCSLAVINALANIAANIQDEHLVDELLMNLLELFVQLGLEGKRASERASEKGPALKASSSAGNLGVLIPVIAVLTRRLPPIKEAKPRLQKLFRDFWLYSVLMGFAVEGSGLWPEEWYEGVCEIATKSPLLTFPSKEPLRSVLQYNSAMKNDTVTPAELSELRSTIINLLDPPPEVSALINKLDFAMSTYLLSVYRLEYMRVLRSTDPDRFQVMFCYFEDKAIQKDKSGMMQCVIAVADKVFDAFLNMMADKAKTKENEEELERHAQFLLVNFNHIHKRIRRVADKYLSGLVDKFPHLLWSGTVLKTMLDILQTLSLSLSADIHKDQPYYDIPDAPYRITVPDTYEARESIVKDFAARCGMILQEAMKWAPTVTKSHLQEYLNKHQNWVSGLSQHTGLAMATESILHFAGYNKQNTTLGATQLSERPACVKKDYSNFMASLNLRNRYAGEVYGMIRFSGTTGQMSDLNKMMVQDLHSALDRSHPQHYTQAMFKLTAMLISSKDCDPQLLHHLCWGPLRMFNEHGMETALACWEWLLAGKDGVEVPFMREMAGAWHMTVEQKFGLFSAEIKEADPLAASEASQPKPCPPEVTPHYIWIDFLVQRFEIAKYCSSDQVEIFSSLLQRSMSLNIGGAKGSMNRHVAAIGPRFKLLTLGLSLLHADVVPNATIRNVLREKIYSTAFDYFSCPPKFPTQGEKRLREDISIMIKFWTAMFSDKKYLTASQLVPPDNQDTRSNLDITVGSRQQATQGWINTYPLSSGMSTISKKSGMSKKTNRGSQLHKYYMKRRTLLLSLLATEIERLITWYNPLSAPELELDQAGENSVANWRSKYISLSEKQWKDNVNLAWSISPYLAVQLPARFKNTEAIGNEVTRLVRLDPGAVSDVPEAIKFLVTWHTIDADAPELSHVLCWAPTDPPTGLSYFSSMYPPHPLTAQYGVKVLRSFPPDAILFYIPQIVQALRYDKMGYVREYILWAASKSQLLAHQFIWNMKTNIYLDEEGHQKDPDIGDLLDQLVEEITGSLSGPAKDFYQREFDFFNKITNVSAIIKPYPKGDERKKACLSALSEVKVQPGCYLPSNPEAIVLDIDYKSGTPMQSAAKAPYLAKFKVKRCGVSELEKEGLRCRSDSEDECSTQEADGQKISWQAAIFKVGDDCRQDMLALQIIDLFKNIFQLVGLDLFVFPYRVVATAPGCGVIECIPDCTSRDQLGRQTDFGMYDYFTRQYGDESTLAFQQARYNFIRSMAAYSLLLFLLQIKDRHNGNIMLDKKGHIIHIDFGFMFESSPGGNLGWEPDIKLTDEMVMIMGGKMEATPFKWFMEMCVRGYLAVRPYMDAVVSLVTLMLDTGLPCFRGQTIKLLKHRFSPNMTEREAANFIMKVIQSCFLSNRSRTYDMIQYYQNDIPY
UniProt P53350, whole entry: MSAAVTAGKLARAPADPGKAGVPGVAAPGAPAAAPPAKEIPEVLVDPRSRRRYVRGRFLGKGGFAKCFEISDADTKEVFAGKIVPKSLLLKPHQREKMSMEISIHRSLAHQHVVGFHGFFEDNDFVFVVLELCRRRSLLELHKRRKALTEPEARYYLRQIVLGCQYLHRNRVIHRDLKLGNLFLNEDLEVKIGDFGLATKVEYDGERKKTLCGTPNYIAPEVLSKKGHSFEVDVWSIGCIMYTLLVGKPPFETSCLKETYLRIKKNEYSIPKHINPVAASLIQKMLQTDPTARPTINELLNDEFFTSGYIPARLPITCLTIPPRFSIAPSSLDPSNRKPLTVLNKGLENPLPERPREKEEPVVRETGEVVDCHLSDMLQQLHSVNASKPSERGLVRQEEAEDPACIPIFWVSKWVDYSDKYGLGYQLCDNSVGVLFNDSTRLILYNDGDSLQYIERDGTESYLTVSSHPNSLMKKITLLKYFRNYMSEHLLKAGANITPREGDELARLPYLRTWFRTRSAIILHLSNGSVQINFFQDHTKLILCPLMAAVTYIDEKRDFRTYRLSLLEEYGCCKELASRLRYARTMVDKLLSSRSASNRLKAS
UniProt Q13131: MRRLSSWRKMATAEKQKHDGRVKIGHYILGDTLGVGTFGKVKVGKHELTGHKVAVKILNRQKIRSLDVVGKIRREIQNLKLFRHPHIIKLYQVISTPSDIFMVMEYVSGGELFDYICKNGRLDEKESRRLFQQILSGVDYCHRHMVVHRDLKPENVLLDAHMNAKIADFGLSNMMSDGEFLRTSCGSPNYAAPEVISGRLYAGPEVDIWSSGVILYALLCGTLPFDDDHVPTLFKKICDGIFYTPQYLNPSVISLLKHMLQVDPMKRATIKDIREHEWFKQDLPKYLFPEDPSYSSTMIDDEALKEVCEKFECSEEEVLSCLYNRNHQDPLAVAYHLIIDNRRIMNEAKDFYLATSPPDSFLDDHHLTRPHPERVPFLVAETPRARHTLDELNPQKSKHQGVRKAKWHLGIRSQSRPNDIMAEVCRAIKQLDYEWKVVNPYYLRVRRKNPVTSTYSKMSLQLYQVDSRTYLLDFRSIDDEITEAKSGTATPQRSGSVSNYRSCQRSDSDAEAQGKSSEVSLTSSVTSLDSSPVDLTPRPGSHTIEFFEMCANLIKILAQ

Assays:
Assay in all cases: number of time points (of 5) at which kinase-Nluc abundance scored as decreased, DMSO-normalised (count); higher = more persistent destabilization
Conditions in all cases: K562; 2-18 h
[1] = target: NTRK3 (UniProt Q16288)
[2] = target: PAK4 (UniProt O96013)
[3] = target: PBK (UniProt Q96KB5)
[4] = target: PDGFRB (UniProt P09619)
[5] = target: PDK1 (UniProt Q15118)
[6] = target: PDPK1 (UniProt O15530)
[7] = target: PIK4CA (UniProt P42356)
[8] = target: PIK4CB (UniProt Q9UBF8)
[9] = target: PLK1 (UniProt P53350)
[10] = target: PRKAA1 (UniProt Q13131)

Measured: number of time points

Cc1cc(CS(=O)(=O)c2ccccc2)cc(OCc2ccc(CN3CCC[C@@H]3CO)cc2)c1 [PF-543 (Citrate)] (10 µM)
0: [1] | [2] | [3] | [4] | [5] | [6] | [7] | [8] | [9] | [10]

O=C(NOC[C@H](O)CO)c1ccc(F)c(F)c1Nc1ccc(I)cc1F (2.5 µM)
0: [1] | [2] | [3] | [4] | [5] | [6] | [7] | [8] | [9] | [10]

CCN(CC)CCCCNc1ncc2cc(-c3cc(OC)cc(OC)c3)c(NC(=O)NC(C)(C)C)nc2n1 (10 µM)
0: [1] | [2] | [3] | [4] | [5] | [6] | [7] | [8] | [9] | [10]

CCN1CCN(Cc2ccc(C(=O)Nc3ccc(C)c(Oc4ccc5c(c4)CC(=O)N5)c3)cc2C(F)(F)F)CC1 (2.5 µM)
0: [2] | [3] | [5]
3: [6] | [7]
2: [4] | [8] | [9] | [10]
1: [1]

COc1cc(OC)cc(N(CCNC(C)C)c2ccc3ncc(-c4cnn(C)c4)nc3c2)c1 [Erdafitinib] (2.5 µM)
0: [1] | [2] | [3] | [4] | [5] | [6] | [7] | [8] | [9] | [10]

O=C([O-])c1ccccc1O.[Na+] [Sodium Salicylate] (10 µM)
0: [1] | [2] | [3] | [4] | [5] | [6] | [7] | [8] | [9] | [10]

CN1CCN(C(=O)c2ccc(-c3ccc4c(C=O)c(O)ccc4c3)s2)CC1 (2.5 µM)
0: [1] | [2] | [3] | [4] | [5] | [6] | [7] | [8] | [9] | [10]

CCCS(=O)(=O)Nc1ccc(F)c(C(=O)c2c[nH]c3ncc(Cl)cc23)c1F (10 µM)
1: [6]
0: [1] | [2] | [3] | [4] | [5] | [7] | [8] | [9] | [10]

Nc1ncnc2c1c(-c1cccc(OCc3ccccc3)c1)cn2C1CC(CN2CCCC2)C1 (stereo not given) (2.5 µM)
0: [1] | [2] | [3] | [4] | [5] | [6] | [7] | [8] | [9] | [10]

CC(C)c1cnn2c(NCc3ccccc3)cc(NC[C@H]3CCNC[C@@H]3O)nc12 [Samuraciclib (hydrochloride)] (10 µM)
0: [1] | [2] | [3] | [4] | [5] | [6] | [7] | [8] | [9] | [10]

Cc1cc(N2CCOCC2)cc2[nH]c(-c3c(NC[C@@H](O)c4cccc(Cl)c4)cc[nH]c3=O)nc12 (10 µM)
4: [6]
0: [1] | [2] | [3] | [5] | [7] | [9]
1: [10]
2: [4] | [8]

CNC(=O)c1cccc(-c2ccc3c(N4CCOC[C@@H]4C)nc(N4CCOC[C@@H]4C)nc3n2)c1 [Vistusertib] (2.5 µM)
4: [1] | [6] | [7]
3: [8] | [9] | [10]
0: [2] | [3] | [5]
2: [4]

C[C@H](NC(=O)/C(C#N)=C/c1cccc(Br)n1)c1ccccc1 (2.5 µM)
0: [1] | [2] | [3] | [4] | [5] | [6] | [7] | [8] | [9] | [10]

CCn1c(=O)c2cc(C(N)=O)c(N)nc2n(C2CC2)c1=O (10 µM)
0: [1] | [2] | [3] | [4] | [5] | [6] | [7] | [8] | [9] | [10]

C=CC(=O)N1CCN(CCCn2c(=O)c(-c3c(Cl)c(OC)cc(OC)c3Cl)cc3cnc(NC)nc32)CC1 (10 µM)
0: [1] | [2] | [3] | [4] | [5] | [6] | [7] | [8] | [9] | [10]

NC(=O)c1ccc(-c2nc(-c3ccccn3)c(-c3ccc4c(c3)OCO4)[nH]2)cc1 (10 µM)
0: [1] | [2] | [3] | [4] | [5] | [6] | [7] | [8] | [9] | [10]

Oc1ccc(-c2nc(-c3ccc(F)cc3)c(-c3ccncc3)[nH]2)cc1 (2.5 µM)
0: [1] | [2] | [3] | [4] | [5] | [6] | [7] | [8] | [9] | [10]

CC1(C)CC=C(c2nc(C3CC(C)(C)OC(C)(C)C3)ccc2NC(=O)c2nc(C#N)c[nH]2)CC1 [Edicotinib] (2.5 µM)
0: [1] | [2] | [3] | [4] | [5] | [6] | [7] | [8] | [9] | [10]

COc1cc2ncn(-c3cc(OCc4ccccc4C(F)(F)F)c(C(N)=O)s3)c2cc1OC (10 µM)
2: [4]
0: [1] | [2] | [3] | [5] | [6] | [7] | [8] | [9] | [10]

CN1CCN(S(=O)(=O)c2ccc(-c3cnc(N)c(C(=O)Nc4cccnc4)n3)cc2)CC1 (10 µM)
0: [1] | [2] | [3] | [4] | [5] | [6] | [7] | [8] | [9] | [10]

O=C(/C=C/c1ccc(O)c(O)c1)c1ccc(O)cc1O [Butein] (10 µM)
1: [9] | [10]
0: [1] | [2] | [3] | [4] | [5] | [7]
2: [8]
4: [6]

O=C(Nc1cc(C(F)(F)F)ccc1N1CCN(Cc2ccccn2)CC1)c1ccc(-c2ccncc2)o1 (10 µM)
0: [1] | [2] | [3] | [4] | [5] | [6] | [7] | [8] | [9] | [10]

CCOc1ccn(-c2ccc(F)cc2)c(=O)c1C(=O)Nc1ccc(Oc2ccnc(N)c2Cl)c(F)c1 (10 µM)
0: [2] | [3] | [4] | [5] | [8]
1: [1] | [7] | [9] | [10]
4: [6]

3 entries already listed, ordered by SMILES length, smallest number first.
CN1CCN(S(=O)(=O)c2ccc(-c3cnc(N)c(C(=O)Nc4cccnc4)n3)cc2)CC1 (10 µM)
0: [1] | [2] | [3] | [4] | [5] | [6] | [7] | [8] | [9] | [10]

C=CC(=O)N1CCN(CCCn2c(=O)c(-c3c(Cl)c(OC)cc(OC)c3Cl)cc3cnc(NC)nc32)CC1 (10 µM)
0: [1] | [2] | [3] | [4] | [5] | [6] | [7] | [8] | [9] | [10]

CCN1CCN(Cc2ccc(C(=O)Nc3ccc(C)c(Oc4ccc5c(c4)CC(=O)N5)c3)cc2C(F)(F)F)CC1 (2.5 µM)
0: [2] | [3] | [5]
3: [6] | [7]
2: [4] | [8] | [9] | [10]
1: [1]

The list goes on:

COc1cc2nc(C)nc(N[C@H](C)c3cc(N)cc(C(F)(F)F)c3)c2cc1O[C@H]1CCOC1 (10 µM)
0: [1] | [2] | [3] | [4] | [5] | [6] | [7] | [8] | [9] | [10]

O=C1c2ccccc2-c2n[nH]c3cccc1c23 (10 µM)
0: [1] | [2] | [3] | [4] | [5] | [6] | [7] | [8] | [9] | [10]

C[C@H](CN(C)C)Oc1nc(Nc2cc3cccc(Cl)c3cn2)cnc1C#N (10 µM)
0: [1] | [2] | [3] | [4] | [5] | [6] | [7] | [8] | [9] | [10]

NS(=O)(=O)c1ccc(Nc2nc(OCC3CCCCC3)c3[nH]cnc3n2)cc1 (10 µM)
0: [1] | [2] | [3] | [4] | [5] | [6] | [7] | [8] | [9] | [10]

C=CC(=O)Nc1ccc2ncnc(Nc3cccc(Br)c3)c2c1 (10 µM)
3: [8]
1: [6] | [10]
0: [1] | [2] | [3] | [4] | [5] | [7] | [9]

CN1CCC(Nc2ncc3ncnc(Nc4ccc(F)c(Cl)c4)c3n2)CC1 [Falnidamol] (10 µM)
0: [1] | [2] | [3] | [4] | [5] | [6] | [7] | [8] | [9] | [10]

Cc1ccc2c(Nc3ccc(Cl)cc3)nccc2c1Nc1ncccc1-c1ncnc2nc[nH]c12 [Raf inhibitor 1] (2.5 µM)
0: [1] | [2] | [3] | [4] | [5] | [6] | [7] | [8] | [9] | [10]

CCOc1cc2ncc(C#N)c(Nc3ccc(OCc4ccccn4)c(Cl)c3)c2cc1NC(=O)/C=C/CN(C)C [Neratinib] (10 µM)
0: [1] | [2] | [3] | [4] | [5] | [6] | [7] | [8] | [9] | [10]

CNC(=O)c1ccccc1Nc1nc(Nc2ccc(N3CCOCC3)cc2OC)ncc1Cl (2.5 µM)
0: [1] | [2] | [3] | [4] | [5] | [6] | [7] | [8] | [9] | [10]

CC(C)CC(=O)Nc1n[nH]c2c1CN(C(=O)C1CCN(C)CC1)C2(C)C (2.5 µM)
3: [4] | [6]
0: [2] | [3] | [5] | [8] | [9] | [10]
1: [1] | [7]

CN1CCN(c2ccc(Nc3cc(-c4cccc(-n5ccc6cc(C7CC7)cc(F)c6c5=O)c4CO)cn(C)c3=O)nc2)CC1 (2.5 µM)
0: [1] | [2] | [3] | [4] | [5] | [6] | [7] | [8] | [9] | [10]

CCCCC[C@H](O)CC(=O)CCc1ccc(O)c(OC)c1 [[6]-Gingerol] (10 µM)
0: [1] | [2] | [3] | [4] | [5] | [6] | [7] | [8] | [9] | [10]

Cc1cccc(Cn2nc(C3CC3)c3c(NC(=O)c4cnc5cc(OCCN6CCN(C)CC6)ccn45)cccc32)n1 (10 µM)
0: [1] | [2] | [3] | [4] | [5] | [6] | [7] | [8] | [9] | [10]
